Reference: PubChem BioAssay AID504648 (National Center for Advancing Translational Sciences (NCATS), 2011)
Screen size: about 390,000 compounds; about 610 (0.16%) were called active. Inconclusive means that the source gave no clear call. Such entries were picked first, then a sample of the others. The call rests on the fitted dose curve; in most records, active means well fitted inhibition curve with a large enough effect; inconclusive means small, poorly fitted or top-dose-only effect, or effect the other way, or another doubt; inactive means no such curve, though single readings can be large or run the other way. A potency beside an inconclusive call is a rough fit, not a confirmed value.

Assay: Nrf2 qHTS screen for inhibitors: counterscreen for cytotoxicity
Conditions: A549 ARE-Fluc cells, CellTiter-Fluor viability, 18-24 h; activity change, negative = cytotoxicity: at 46 µM (top of the series)
How it was run: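 A549 ARE_Fluc cells in 5% FBS OPTI-MEM were exposed to compounds in concentration-response for 18-24 h at 37 deg C. Viability was read by CellTiter-Fluor fluorescence (Ex 405/Em 525) after 30 min, before the luciferase read.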
On the % scale 0 is the no-effect control and ±100 the full control effect; potency means the concentration at half of the fitted maximal effect.

SMILES | activity change, negative = cytotoxicity | Potency
Cc1cc(C)cc(NC(=O)c2ccc3c(O)c(S(=O)(=O)c4ccccc4)c(=O)[nH]c3c2)c1 | inactive: 3.29% | 
O=C(Nc1ccc([N+](=O)[O-])cc1)Nc1nc(-c2ccc(Cl)s2)cs1 |  | inconclusive: 23.1 µM [falling, single point]
CCOC(=O)c1c(C)oc2c1c(C=NCCC(=O)O)c(O)c1ccccc12 |  | inconclusive: 14.6 µM [falling, single point]
O=C(Nc1nc(-c2ccccn2)cs1)c1ccc(Br)s1 |  | inconclusive: 0.259 µM [falling, full curve, poor fit]
CCc1ccc(CNC(=O)c2nn(-c3ccc(OC)c(Cl)c3)c(=O)c3c2c2ccccc2n3C)cc1 | inactive: 8.33% | 
CC(=O)NS(=O)(=O)c1ccc(Nc2ccc([N+](=O)[O-])c3nonc23)cc1 |  | inconclusive: 23.1 µM [falling, single point]
COc1cc(C(=O)OCCCN2CCCN(CCCOC(=O)c3cc(OC)c(OC)c(OC)c3)CC2)cc(OC)c1OC |  | inconclusive: 20.6 µM [falling, single point]
COC(=O)C1=C(C)NC(C)=C([N+](=O)[O-])C1c1ccccc1C(F)(F)F (stereo not given) |  | inconclusive: 23.1 µM [falling, single point]
COc1ccc(OC)c(-c2csc(NC(=O)COC(=O)C3(C)CC3(Cl)Cl)n2)c1 (stereo not given) | inactive: 0.381% | 
O=C(/C(Br)=C/Nc1cc(Cl)ccc1Cl)C(F)(F)F | inactive: 8.2% | 
O=C(O)CC/C(=N/NC(=O)CNC(=O)Cc1ccccc1)c1ccccc1 |  | inconclusive: 25.9 µM [activator, partial curve]
Cc1cc(C)cc(C(=O)Nc2ccc(NC(=O)c3cccs3)cc2)c1 |  | inconclusive: 16.4 µM [falling, partial curve, poor fit]
CCOC(=O)c1ccc(NC(=S)N(CCCN2CCCC(C)C2)Cc2ccco2)cc1 (stereo not given) |  | inconclusive: 29.1 µM [falling, partial curve, poor fit]
CCNC1=C(Cl)C(=O)c2ccccc2C1=O |  | inconclusive: 13 µM [falling, partial curve, poor fit]
Cc1nnc2c(SC(C)C)nc3ccccc3n12 |  | inconclusive: 18.4 µM [falling, single point]
Cc1cc(C)c2nc(N3C(=O)C(O)=C(C(=O)c4ccco4)C3c3ccc(O)cc3)sc2c1 (stereo not given) |  | inconclusive: 29.1 µM [falling, partial curve, poor fit]
Cc1cc(C(C)(C)C)ccc1OCCCCN1CCCC1 | inactive: 3.75% | 
O=C(Cn1c(=O)nc(-c2ccccc2F)c2cc(Cl)ccc21)Nc1ccccc1C(F)(F)F |  | inconclusive: 16.4 µM [falling, single point]
CC1(C)c2[nH]c3ccccc3c2C[C@H]2C(=O)N(Cc3ccc(F)cc3)C(=O)N21 |  | inconclusive: 29.1 µM [falling, single point]
O=S(=O)(Nc1ccc(-c2ccc(N3CCCCCC3)nn2)cc1)c1cccc(C(F)(F)F)c1 |  | inconclusive: 29.1 µM [falling, single point]
CCN1C(=O)/C(=C\C=C2/C=CC=CN2CC)SC1=S |  | active: 14.6 µM
C=CCc1ccccc1OCCn1c(C2CC(=O)N(Cc3ccc(F)cc3)C2)nc2ccccc21 (stereo not given) | inactive: -1.79% | 

Structural class, the entries above containing an NH in an aromatic ring
SMILES | activity change, negative = cytotoxicity | Potency
Cc1cc(C)cc(NC(=O)c2ccc3c(O)c(S(=O)(=O)c4ccccc4)c(=O)[nH]c3c2)c1 | inactive: 3.29% | 
CC1(C)c2[nH]c3ccccc3c2C[C@H]2C(=O)N(Cc3ccc(F)cc3)C(=O)N21 |  | inconclusive: 29.1 µM [falling, single point]

(further entries)

SMILES | activity change, negative = cytotoxicity | Potency
Cc1cccc(C)c1NC(=O)C1C2C=CC(C2)C1C(=O)O (stereo not given) |  | inconclusive: 7.31 µM [falling, partial curve, poor fit]
CN(C)c1ccc(NC(=O)CSc2nc3ccccc3c(=O)n2C2CCCCC2)cc1 |  | inconclusive: 7.31 µM [falling, partial curve]
Cc1cc(C)cc(NC(=O)CCc2nc3sc4c(c3c(=O)[nH]2)CCCC4)c1 |  | inconclusive: 25.9 µM [falling, single point]
CC1CCCN(C(=O)c2ccc3c(c2NCCO)C(=O)c2ccccc2C3=O)C1 (stereo not given) |  | inconclusive: 29.1 µM [falling, single point]
COc1ccc(C(=O)Nc2ccc3nc(N4CCCCC4)cc(C)c3c2)cc1OC |  | inconclusive: 18.4 µM [falling, single point]
CC1CCN(CC(CS(=O)(=O)c2ccc([N+](=O)[O-])cc2)N2CCC(C)CC2)CC1 (stereo not given) |  | inconclusive: 16.4 µM [falling, single point]
CN(CC(=O)Nc1ccc(Cl)c(S(=O)(=O)N(C)C)c1)Cc1ccccc1 |  | inconclusive: 29.1 µM [falling, single point]
COc1cccc(C(=O)Nc2ccc(C(=O)OCc3cc(=O)n4cc(C)sc4n3)cc2)c1 | inactive: 0.374% | 
O=C(NCCCN1CCOCC1)c1ccc(CS(=O)(=O)c2ccc(Br)cc2)o1 |  | inconclusive: 29.1 µM [activator, single point]
COc1ccc(C(=O)O/N=C(\N)c2ccccc2)c(OC)c1 |  | inconclusive: 29.1 µM [falling, single point]
O=C(N/N=C/c1sc(=O)[nH]c1-[n+]1ccccc1)c1ccccc1[O-] |  | inconclusive: 11.6 µM [falling, partial curve, poor fit]
CCc1nnc(SCC(=O)Nc2ccc(N3CCN(S(C)(=O)=O)CC3)cc2)o1 |  | inconclusive: 32.6 µM [falling, partial curve, poor fit]
O=C(Cc1ccc(NC(=O)N2CCCCc3ccccc32)cc1)Nc1ccccc1Br | inactive: -1.64% | 
O=C(C1CC(=O)N(c2ccc(Cl)cc2)C1)N1CCC(c2nc3ccccc3[nH]2)CC1 (stereo not given) |  | inconclusive: 14.6 µM [falling, single point]
Nc1cc([N+](=O)[O-])ccc1Nc1ccc(O)cc1 |  | inconclusive: 14.6 µM [falling, single point]
COc1ccc(CN2[C@@H](CC(C)=O)c3ccc(/C=C/C(C)=O)cc3S2(=O)=O)cc1 | inactive: -0.102% | 
CCc1nc(Nc2cccc(OC)c2)c2oc3ccccc3c2n1 | inactive: 8% | 
N=c1c(-c2nc3ccccc3[nH]2)cc(C(=O)c2ccco2)nn1-c1ccccc1 |  | inconclusive: 18.4 µM [falling, single point]
Cc1ccccc1C(CC(=O)c1cccs1)C(C#N)C#N (stereo not given) |  | inconclusive: 18.4 µM [falling, single point]
CC(C)(C)c1ccc(C(=O)N2CCC(=O)N(C(COCc3ccccc3)Cc3ccccc3)CC2)cc1 (stereo not given) |  | inconclusive: 29.1 µM [falling, single point]
COc1ccc2nc3cc(Cl)ccc3c(Nc3cc(C(C)C)c(O)cc3C)c2c1 |  | inconclusive: 23.1 µM [falling, single point]
Cc1nc(NC(=O)CCCC(=O)Nc2nc(C)c(C)s2)sc1C |  | inconclusive: 1.16 µM [activator, single point]

SMILES | activity change, negative = cytotoxicity | Potency
CC(C)(C)c1ccc(C(=O)N/N=C/c2ccccn2)cc1 |  | inconclusive: 6.51 µM [falling, partial curve, poor fit]
CC(=O)Nc1nnc(CSCc2ccccc2F)s1 | inactive: 0.115% | 
CCCCCn1c(=O)[nH]c2cc(C(=O)N3CCN(c4ccccc4F)CC3)ccc2c1=O |  | inconclusive: 29.1 µM [falling, single point]
O=C1CC(N2CCN(Cc3ccccc3)CC2)C(=O)N1 (stereo not given) |  | inconclusive: 10.3 µM [activator, partial curve, poor fit]
COc1cccc(-n2c(SCC(=O)Nc3ccc(F)cc3F)nc3c([nH]c4ccccc43)c2=O)c1 |  | inconclusive: 20.6 µM [falling, partial curve, poor fit]
O=C(O)COc1ccc2c(c1)O/C(=C\c1cccs1)C2=O |  | inconclusive: 20.6 µM [falling, partial curve]
c1ccc2[nH]c(NCCCN3CCOCC3)nc2c1 |  | inconclusive: 10.3 µM [activator, single point]
C=CCn1c(=O)c(C(=O)Nc2cccnc2)c(O)c2ccccc21 |  | inconclusive: 29.1 µM [falling, single point]
CC1CCCN(C(=O)N2c3ccccc3Sc3ccccc32)C1 (stereo not given) |  | inconclusive: 29.1 µM [falling, single point]
Cc1cc(/C=C2\SC(=S)NC2=O)c(C)n1-c1ccccc1 |  | inconclusive: 11.6 µM [falling, partial curve, poor fit]
Cc1ccc(-n2c(=O)c3c(cnn3C)n(CC(=O)Nc3cc(C)ccc3C)c2=O)cc1 | inactive: -10.8% | 
O=C(CCSCc1cnn(-c2ccccc2)c1-n1cccc1)NCc1ccc(Cl)cc1 | inactive: -0.737% | 
CC(OC(=O)c1ccco1)C(=O)Nc1nc(-c2ccccc2)cs1 (stereo not given) | inactive: -0.673% | 
Cc1cccc(NS(=O)(=O)c2ccc(Cl)c(C(=O)Nc3ccccc3C)c2)c1 |  | inconclusive: 7.31 µM [activator, partial curve, poor fit]
O=C(O)c1ccc(-c2noc(-c3ccccc3C(F)(F)F)n2)cc1 |  | inconclusive: 29.1 µM [falling, single point]
COc1ccc(-c2ccc(SCC(=O)NCc3ccc4c(c3)OCO4)nn2)cc1OC |  | inconclusive: 2.31 µM [falling, full curve]
Cn1nc(-c2ccccc2)c(CO)c1Oc1cccc(C(F)(F)F)c1 |  | inconclusive: 6.51 µM [falling, single point]
COc1cccc(NC(=O)CN(C)C(=O)c2cn(-c3ccccc3)nc2-c2cccs2)c1 |  | inconclusive: 16.4 µM [falling, partial curve, poor fit]
CCCCOc1ccccc1NC(=O)Cn1c(-c2cncs2)nc2ccccc21 | inactive: 8.46% | 
COc1ccc(C(=O)C2CCCN(Cc3cnc(N4CCOCC4)s3)C2)c(OC)c1 (stereo not given) |  | inconclusive: 16.4 µM [falling, single point]
CN1CCN(Cc2c(O)ccc3cc(-c4ccccc4)c(=O)oc23)CC1 |  | inconclusive: 16.4 µM [activator, partial curve]
